# Screening data, single-dose tests

From ChEMBL document CHEMBL3988442, “University of Dundee, Small-Polar-MMV Screening Library” (2021).

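Assay of Toxoplasma gondii numbers, read through their beta-galactosidase reporter with a colour substrate. Compounds at 50 µM. Higher reads as fewer parasites (inferred from which compounds were picked for retests). About 18,000 compounds were tested under these conditions; 0.94% (about 170) showed 50% or more at least once.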

Each number is a percent effect as filed. How 0% and 100% were set is not recorded. Most values in the screen are low, and negative values occur. Compounds were drawn at random from those tested, without regard to their results.

Cc1cccc(NC(=O)CN(C)Cc2nnsc2Cl)n1 read -6.257%.
CN(C(=O)C(CN)c1ccccc1)c1cccc(F)c1 (stereo not drawn) read 37.29%.
NC1CCC(N2C(=O)CCC2=O)CC1 (stereo not drawn) read 15.63%.
OCCc1ccnc2ccccc12 read -13.88%.
CC(N)C(=O)N1CCN(c2ccc(C(N)=O)cc2)CC1 (stereo not drawn) read -9.997%.
O=C(NCC1CC1)c1cccc2nn[nH]c12 read -0.351%.
O=C(NCCCN1CCc2ccccc2C1)C1CC1 read 23.48%.
CC(C)CC(C)OCCC(=O)Nc1cn[nH]c1 (stereo not drawn) read 2.399%.
CCc1ncnc(N(CC)CC(N)=O)c1F read -1.717%.
CC[C@H](N)C(=O)N1CCN(C)C2(CCN(C)CC2)C1 read -16.72%.
NC(=O)CC(N)C1CCOCC1 (stereo not drawn) read -21.4%.
Cc1cc2cc(C(=O)NCCOC(N)=O)oc2cc1C read 1.937%.
COCCC1(CO)CCCN(CCCSC)C1 (stereo not drawn) read -3.27%.
Cc1ncsc1C(=O)NCCCN1CCOCC1 read -0.9346%.
CN(C)C1CN(S(=O)(=O)Cc2cccc(F)c2)C1 read 2.339%.
O=C(NCC1(O)CCCNC1)c1ccc(F)cc1Cl (stereo not drawn) read -11.51%.
COCCN1CCN(CCc2ccccn2)CC1C (stereo not drawn) read -4.421%.
OC1(c2cccc(OC(F)(F)F)c2)CCNCC1 read 4.274%.
c1cnn(CCN2CCCCC2Cn2cncn2)c1 (stereo not drawn) read -4.877%.
Cc1ccc(C(=O)N2CCN(CC(C)O)CC2)cc1Cl (stereo not drawn) read 4.388%.
Cc1cc(CS(=O)(=O)Cc2ccc(C(N)=O)cc2)no1 read -2.328%.
CCNC(=O)N(C)Cc1cccnc1OCC read -6.742%.
CN(C)C1CCN(S(=O)(=O)c2ncn(C)c2Cl)CC1 read -2.885%.
COCCN(CCC#N)S(=O)(=O)c1c(C)nn(C)c1Cl read 0.79%.
CC(C)(O)CNC(=O)CCCc1ccccc1 read 21.64%.
O=C(NCC1CCNCC1)c1ccncc1 read -2.628%.
CCN(Cc1ccn(CC)n1)[C@H]1COC[C@@H]1O read 12.31%.
C=C(C)COc1cccc(NC(=O)N(C)CCO)c1 read 9.16%.

The last 3 entries again:

For O=C(NCC1CCNCC1)c1ccncc1 the result was -2.628%.
For CCN(Cc1ccn(CC)n1)[C@H]1COC[C@@H]1O the result was 12.31%.
For C=C(C)COc1cccc(NC(=O)N(C)CCO)c1 the result was 9.16%.